Measured values from PMC9581579 (2022).
Results are given in words; binding and its absence hold for the method and conditions named. Binding seen in cells or lysates may run through a third protein. Some results given as binding are weak or reduced against the parent protein; the word gives no strength. For part of these data: Tags and fused reporters may be left off the sequences shown.

The chains behind the UniProt entries cited, without tags or fusion partners.
UniProt A2AKB4: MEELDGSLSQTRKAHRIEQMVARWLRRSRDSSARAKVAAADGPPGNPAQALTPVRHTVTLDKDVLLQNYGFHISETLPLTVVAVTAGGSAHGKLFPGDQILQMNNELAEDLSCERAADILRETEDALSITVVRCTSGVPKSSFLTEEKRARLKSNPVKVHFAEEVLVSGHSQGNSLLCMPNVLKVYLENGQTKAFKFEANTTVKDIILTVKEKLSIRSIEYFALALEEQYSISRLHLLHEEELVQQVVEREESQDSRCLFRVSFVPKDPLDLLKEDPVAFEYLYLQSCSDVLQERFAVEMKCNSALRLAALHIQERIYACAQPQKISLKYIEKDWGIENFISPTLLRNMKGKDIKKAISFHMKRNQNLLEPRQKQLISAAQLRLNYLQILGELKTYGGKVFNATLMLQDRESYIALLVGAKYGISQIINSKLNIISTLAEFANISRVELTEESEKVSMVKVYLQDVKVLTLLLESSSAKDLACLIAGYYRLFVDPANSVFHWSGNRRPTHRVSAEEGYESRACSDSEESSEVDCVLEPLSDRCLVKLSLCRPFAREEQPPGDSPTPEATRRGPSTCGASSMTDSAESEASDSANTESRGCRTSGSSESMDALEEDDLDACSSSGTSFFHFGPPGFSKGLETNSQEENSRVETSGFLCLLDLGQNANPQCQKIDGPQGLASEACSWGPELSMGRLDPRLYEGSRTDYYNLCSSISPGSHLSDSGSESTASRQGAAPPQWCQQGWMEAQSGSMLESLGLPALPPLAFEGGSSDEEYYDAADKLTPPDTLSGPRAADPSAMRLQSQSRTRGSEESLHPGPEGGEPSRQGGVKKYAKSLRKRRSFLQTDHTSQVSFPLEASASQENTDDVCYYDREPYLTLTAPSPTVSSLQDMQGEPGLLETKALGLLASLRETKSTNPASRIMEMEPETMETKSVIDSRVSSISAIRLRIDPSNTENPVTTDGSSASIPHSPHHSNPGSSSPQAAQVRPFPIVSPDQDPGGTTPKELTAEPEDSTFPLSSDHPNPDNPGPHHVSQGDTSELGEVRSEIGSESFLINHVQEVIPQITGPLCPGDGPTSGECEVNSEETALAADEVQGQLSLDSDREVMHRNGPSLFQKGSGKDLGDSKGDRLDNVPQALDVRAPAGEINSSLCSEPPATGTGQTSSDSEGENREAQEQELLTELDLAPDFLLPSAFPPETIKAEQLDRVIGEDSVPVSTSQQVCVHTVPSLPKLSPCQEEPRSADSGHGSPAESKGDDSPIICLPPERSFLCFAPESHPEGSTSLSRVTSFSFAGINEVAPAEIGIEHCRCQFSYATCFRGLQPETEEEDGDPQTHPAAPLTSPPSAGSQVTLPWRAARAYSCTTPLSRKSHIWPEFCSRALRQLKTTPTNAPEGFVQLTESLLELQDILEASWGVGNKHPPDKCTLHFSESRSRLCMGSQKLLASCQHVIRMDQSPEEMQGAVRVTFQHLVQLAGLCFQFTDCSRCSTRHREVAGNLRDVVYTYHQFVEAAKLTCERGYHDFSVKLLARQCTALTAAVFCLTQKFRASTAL

Experiments:
[1] = molecular target: T1, Gpsm2 (G-protein signaling modulator 2, LGN), endogenous in mouse retina (mouse (endogenous in retina)) (UniProt Q8VDU0); experiment: co-IP; mouse retina lysate, endogenous proteins; mice light-adapted 1 h, then dark-adapted 1 h; IP with anti-Gpsm2 or anti-Frmpd1, Dynabeads protein A or G, immunoblot; IP buffer 150 mM NaCl, 3 mM EDTA, 40 mM Tris, 10% glycerol, 1% n-dodecyl-β-D-maltoside
T1 sequence: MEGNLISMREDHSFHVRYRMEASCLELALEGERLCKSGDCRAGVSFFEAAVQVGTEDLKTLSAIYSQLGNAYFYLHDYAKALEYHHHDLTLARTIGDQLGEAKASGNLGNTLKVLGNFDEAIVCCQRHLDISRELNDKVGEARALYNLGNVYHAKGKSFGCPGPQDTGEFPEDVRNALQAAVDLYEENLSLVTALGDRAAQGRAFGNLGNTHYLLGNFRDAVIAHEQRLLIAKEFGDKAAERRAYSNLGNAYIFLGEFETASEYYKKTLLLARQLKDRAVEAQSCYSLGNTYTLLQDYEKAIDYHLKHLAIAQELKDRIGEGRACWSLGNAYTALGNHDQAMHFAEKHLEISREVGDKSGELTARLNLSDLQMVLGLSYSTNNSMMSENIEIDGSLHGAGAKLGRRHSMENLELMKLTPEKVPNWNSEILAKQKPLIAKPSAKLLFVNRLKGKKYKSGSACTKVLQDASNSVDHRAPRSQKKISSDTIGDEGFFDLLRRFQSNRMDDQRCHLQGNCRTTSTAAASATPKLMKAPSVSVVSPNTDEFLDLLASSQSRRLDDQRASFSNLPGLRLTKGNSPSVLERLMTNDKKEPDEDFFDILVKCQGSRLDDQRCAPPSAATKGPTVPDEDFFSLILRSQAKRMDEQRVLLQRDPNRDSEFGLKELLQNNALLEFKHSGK

[2] = molecular target: FLAG-tagged full-length Frmpd1 (FERM and PDZ domain containing 1) (mouse) (UniProt A2AKB4); experiment: co-IP; HEK293 cells co-transfected with 3′ FLAG-Frmpd1 and mCherry-Gpsm2; IP with anti-FLAG, blot anti-RFP, and IP with anti-RFP, blot anti-FLAG; IP buffer 150 mM NaCl, 3 mM EDTA, 40 mM Tris, 10% glycerol, 1% n-dodecyl-β-D-maltoside
[3] = molecular target: Frmpd1 (FERM and PDZ domain containing 1), endogenous in mouse retina (mouse (endogenous in retina)) (UniProt A2AKB4); experiment: co-IP; mouse retina lysate, endogenous proteins; mice light-adapted 1 h, then dark-adapted 1 h; IP with anti-Gpsm2 or anti-Frmpd1, Dynabeads protein A or G, immunoblot; IP buffer 150 mM NaCl, 3 mM EDTA, 40 mM Tris, 10% glycerol, 1% n-dodecyl-β-D-maltoside

Frmpd1 (FERM and PDZ domain containing 1), endogenous in mouse retina (from UniProt A2AKB4 1-1549)
binding [1]: binds

B1: mCherry-Gpsm2 fusion protein (G-protein signaling modulator 2, LGN) (protein, UniProt P81274 1-684)
chain: MEENLISMREDHSFHVRYRMEASCLELALEGERLCKSGDCRAGVSFFEAAVQVGTEDLKTLSAIYSQLGNAYFYLHDYAKALEYHHHDLTLARTIGDQLGEAKASGNLGNTLKVLGNFDEAIVCCQRHLDISRELNDKVGEARALYNLGNVYHAKGKSFGCPGPQDVGEFPEEVRDALQAAVDFYEENLSLVTALGDRAAQGRAFGNLGNTHYLLGNFRDAVIAHEQRLLIAKEFGDKAAERRAYSNLGNAYIFLGEFETASEYYKKTLLLARQLKDRAVEAQSCYSLGNTYTLLQDYEKAIDYHLKHLAIAQELNDRIGEGRACWSLGNAYTALGNHDQAMHFAEKHLEISREVGDKSGELTARLNLSDLQMVLGLSYSTNNSIMSENTEIDSSLNGVRPKLGRRHSMENMELMKLTPEKVQNWNSEILAKQKPLIAKPSAKLLFVNRLKGKKYKTNSSTKVLQDASNSIDHRIPNSQRKISADTIGDEGFFDLLSRFQSNRMDDQRCCLQEKNCHTASTTTSSTPPKMMLKTSSVPVVSPNTDEFLDLLASSQSRRLDDQRASFSNLPGLRLTQNSQSVLSHLMTNDNKEADEDFFDILVKCQGSRLDDQRCAPPPATTKGPTVPDEDFFSLILRSQGKRMDEQRVLLQRDQNRDTDFGLKDFLQNNALLEFKNSGKKSADH
binding [2]: binds

B2: Gpsm2 (G-protein signaling modulator 2, LGN), endogenous in mouse retina (protein, UniProt Q8VDU0 1-679)
chain: MEGNLISMREDHSFHVRYRMEASCLELALEGERLCKSGDCRAGVSFFEAAVQVGTEDLKTLSAIYSQLGNAYFYLHDYAKALEYHHHDLTLARTIGDQLGEAKASGNLGNTLKVLGNFDEAIVCCQRHLDISRELNDKVGEARALYNLGNVYHAKGKSFGCPGPQDTGEFPEDVRNALQAAVDLYEENLSLVTALGDRAAQGRAFGNLGNTHYLLGNFRDAVIAHEQRLLIAKEFGDKAAERRAYSNLGNAYIFLGEFETASEYYKKTLLLARQLKDRAVEAQSCYSLGNTYTLLQDYEKAIDYHLKHLAIAQELKDRIGEGRACWSLGNAYTALGNHDQAMHFAEKHLEISREVGDKSGELTARLNLSDLQMVLGLSYSTNNSMMSENIEIDGSLHGAGAKLGRRHSMENLELMKLTPEKVPNWNSEILAKQKPLIAKPSAKLLFVNRLKGKKYKSGSACTKVLQDASNSVDHRAPRSQKKISSDTIGDEGFFDLLRRFQSNRMDDQRCHLQGNCRTTSTAAASATPKLMKAPSVSVVSPNTDEFLDLLASSQSRRLDDQRASFSNLPGLRLTKGNSPSVLERLMTNDKKEPDEDFFDILVKCQGSRLDDQRCAPPSAATKGPTVPDEDFFSLILRSQAKRMDEQRVLLQRDPNRDSEFGLKELLQNNALLEFKHSGK
binding [3]: binds
